Assay [1] deals with Cytochrome P450 2D6 (Homo sapiens) (UniProt P10635). As to the kind of experiment: Cytochrome P450 family 2 subfamily D member 6 (CYP2D6) small molecule antagonists: luciferase biochemical (cell-free) qHTS assay (AID 1645840). Further: on the % scale 0 is the no-effect control and ±100 the full control effect; nearly all actives have a fitted effect of over 55% in size. The settings on record: P450-Glo CYP2D6 enzyme, luciferin luminescence, 1 h; at 57.4 µM (top of the series). Put shortly: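 P450-Glo luminescent screen: recombinant CYP2D6 enzyme–proluciferin substrate mix preincubated with compound 10 min at room temperature, then NADPH regeneration added for 1 h at room temperature. Detection reagent added for 20 min; luciferin light read as relative luminescence units.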

The chains behind the UniProt entries cited, without tags or fusion partners. Where a name states a change or a piece, a line headed by the entry shows the natural chain unless it says otherwise.
UniProt P10635, whole entry, looked up: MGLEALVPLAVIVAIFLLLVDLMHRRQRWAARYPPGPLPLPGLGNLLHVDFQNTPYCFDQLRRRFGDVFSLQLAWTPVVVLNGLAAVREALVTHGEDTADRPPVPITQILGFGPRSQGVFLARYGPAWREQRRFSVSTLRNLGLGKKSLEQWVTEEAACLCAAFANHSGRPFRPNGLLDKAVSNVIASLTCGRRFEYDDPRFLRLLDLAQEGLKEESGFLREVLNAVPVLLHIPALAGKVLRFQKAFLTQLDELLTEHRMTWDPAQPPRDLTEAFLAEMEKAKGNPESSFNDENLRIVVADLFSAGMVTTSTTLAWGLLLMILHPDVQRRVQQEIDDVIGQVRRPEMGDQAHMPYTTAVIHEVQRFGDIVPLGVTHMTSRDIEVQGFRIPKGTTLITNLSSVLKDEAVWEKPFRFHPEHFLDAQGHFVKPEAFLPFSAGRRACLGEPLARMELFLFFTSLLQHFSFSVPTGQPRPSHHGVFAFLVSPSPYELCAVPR
UniProt P11712, whole entry, looked up: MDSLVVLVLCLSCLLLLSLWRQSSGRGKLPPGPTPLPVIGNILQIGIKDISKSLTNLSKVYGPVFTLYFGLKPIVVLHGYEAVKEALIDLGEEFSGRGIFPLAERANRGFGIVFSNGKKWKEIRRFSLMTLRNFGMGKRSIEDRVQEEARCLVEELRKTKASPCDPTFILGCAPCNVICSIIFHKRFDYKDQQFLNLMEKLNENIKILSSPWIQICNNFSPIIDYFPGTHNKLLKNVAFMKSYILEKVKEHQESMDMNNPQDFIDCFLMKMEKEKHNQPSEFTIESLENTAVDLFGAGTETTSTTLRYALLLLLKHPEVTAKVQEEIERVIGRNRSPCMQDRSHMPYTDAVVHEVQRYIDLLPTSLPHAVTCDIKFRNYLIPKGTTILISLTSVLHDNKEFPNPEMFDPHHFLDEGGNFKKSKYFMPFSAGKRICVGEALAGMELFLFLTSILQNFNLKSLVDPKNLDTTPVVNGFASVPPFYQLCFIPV
UniProt Q12809: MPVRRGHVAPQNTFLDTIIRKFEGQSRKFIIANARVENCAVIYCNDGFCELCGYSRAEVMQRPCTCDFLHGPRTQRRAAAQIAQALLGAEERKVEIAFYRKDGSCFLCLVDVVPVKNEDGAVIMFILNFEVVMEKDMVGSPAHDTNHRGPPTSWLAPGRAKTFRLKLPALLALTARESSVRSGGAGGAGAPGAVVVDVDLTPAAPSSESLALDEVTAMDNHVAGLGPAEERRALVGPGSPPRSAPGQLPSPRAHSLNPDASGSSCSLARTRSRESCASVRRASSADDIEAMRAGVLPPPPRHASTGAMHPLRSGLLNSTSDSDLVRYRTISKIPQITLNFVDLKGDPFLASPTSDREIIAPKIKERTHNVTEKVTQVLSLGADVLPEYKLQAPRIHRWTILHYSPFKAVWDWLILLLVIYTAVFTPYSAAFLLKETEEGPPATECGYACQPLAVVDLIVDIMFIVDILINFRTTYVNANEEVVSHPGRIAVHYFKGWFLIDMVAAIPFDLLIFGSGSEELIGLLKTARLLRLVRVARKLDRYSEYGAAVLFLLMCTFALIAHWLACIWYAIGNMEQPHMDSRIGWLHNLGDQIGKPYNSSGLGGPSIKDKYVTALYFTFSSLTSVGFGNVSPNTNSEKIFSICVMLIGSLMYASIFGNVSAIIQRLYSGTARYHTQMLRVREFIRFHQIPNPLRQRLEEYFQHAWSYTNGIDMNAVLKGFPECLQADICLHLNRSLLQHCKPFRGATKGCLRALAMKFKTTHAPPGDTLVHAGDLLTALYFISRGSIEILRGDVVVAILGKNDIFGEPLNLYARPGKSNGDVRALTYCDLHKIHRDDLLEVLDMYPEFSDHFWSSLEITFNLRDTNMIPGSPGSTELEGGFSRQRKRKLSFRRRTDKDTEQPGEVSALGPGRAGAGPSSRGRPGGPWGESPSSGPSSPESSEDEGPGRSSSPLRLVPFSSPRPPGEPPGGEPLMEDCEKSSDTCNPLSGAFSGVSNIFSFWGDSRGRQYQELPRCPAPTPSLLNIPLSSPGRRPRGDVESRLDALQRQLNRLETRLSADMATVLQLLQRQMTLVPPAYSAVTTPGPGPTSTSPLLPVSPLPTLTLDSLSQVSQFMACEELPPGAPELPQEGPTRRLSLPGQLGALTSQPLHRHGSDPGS
UniProt P08684, whole entry, looked up: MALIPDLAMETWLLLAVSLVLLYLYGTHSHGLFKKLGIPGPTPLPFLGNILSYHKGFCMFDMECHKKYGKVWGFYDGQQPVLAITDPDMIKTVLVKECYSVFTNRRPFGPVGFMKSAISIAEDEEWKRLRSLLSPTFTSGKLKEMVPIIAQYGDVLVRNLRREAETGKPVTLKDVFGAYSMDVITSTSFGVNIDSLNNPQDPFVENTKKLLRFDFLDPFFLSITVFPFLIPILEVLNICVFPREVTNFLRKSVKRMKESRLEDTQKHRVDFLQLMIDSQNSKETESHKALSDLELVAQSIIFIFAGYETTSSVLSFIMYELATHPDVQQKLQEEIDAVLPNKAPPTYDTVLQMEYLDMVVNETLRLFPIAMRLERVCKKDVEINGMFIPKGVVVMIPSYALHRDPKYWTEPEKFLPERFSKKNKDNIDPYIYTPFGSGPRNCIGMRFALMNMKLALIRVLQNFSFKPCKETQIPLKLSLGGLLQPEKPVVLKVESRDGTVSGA
UniProt P05177, whole entry, looked up: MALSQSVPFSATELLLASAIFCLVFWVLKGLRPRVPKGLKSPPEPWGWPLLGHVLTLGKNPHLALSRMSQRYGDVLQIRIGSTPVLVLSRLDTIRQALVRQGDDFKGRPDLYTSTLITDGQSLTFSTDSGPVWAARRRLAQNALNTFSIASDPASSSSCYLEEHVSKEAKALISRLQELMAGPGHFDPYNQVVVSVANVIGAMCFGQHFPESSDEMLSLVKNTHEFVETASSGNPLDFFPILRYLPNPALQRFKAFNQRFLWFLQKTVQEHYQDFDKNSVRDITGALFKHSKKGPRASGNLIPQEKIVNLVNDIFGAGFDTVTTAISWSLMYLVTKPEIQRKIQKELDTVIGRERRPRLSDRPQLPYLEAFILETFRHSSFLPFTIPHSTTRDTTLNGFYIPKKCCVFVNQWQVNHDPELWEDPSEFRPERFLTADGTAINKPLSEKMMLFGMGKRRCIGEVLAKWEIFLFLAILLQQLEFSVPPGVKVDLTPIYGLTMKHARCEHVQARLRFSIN
UniProt P33261, whole entry, looked up: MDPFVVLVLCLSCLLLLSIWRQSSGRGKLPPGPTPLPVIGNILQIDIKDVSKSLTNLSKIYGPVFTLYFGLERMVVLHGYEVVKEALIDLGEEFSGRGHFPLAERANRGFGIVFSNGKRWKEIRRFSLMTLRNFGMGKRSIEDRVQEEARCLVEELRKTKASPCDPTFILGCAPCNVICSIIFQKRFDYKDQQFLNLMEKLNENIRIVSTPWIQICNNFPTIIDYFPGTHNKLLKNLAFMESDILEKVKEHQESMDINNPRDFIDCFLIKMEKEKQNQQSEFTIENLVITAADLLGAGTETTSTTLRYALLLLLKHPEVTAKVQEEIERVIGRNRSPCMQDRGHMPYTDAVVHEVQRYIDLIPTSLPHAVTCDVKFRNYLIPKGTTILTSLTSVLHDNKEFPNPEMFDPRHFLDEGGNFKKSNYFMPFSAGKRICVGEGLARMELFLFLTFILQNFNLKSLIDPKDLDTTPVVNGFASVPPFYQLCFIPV

For assay [2], the target named is Cytochrome P450 2C9 (Homo sapiens) (UniProt P11712). The assay can be described thus: Cytochrome P450 family 2 subfamily C member 9 (CYP2C9) small molecule antagonists: luciferase biochemical (cell-free) qHTS assay (AID 1645842). Further: nearly all actives have a fitted effect of over 55% in size. Further: potency means the concentration at half of the fitted maximal effect. On activity change, negative = inhibition: on the % scale 0 is the no-effect control and ±100 the full control effect. Put shortly:
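Luminescence, after 20 min with luciferin detection reagent, reflected CYP2C9 turnover during a 1 h NADPH-driven reaction at 37C. Enzyme-substrate mix contained 0.4% bovine serum albumin and was preincubated with compound 10 min at room temperature.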
A general note: qHTS replaces the single test concentration by a dilution series.

Assay [3] concerns the target Voltage-gated inwardly rectifying potassium channel KCNH2 (Homo sapiens) (UniProt Q12809). The assay can be described thus: qHTS Assay for Small Molecule Inhibitors of the Human hERG Channel Activity (AID 588834; active means well fitted curve in the direction sought with a large enough effect; an effect the other way counts as inactive or inconclusive;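 further: top concentration of the series differs between compounds; on the % scale 0 is the no-effect control and ±100 the full control effect; lower thallium flux fluorescence means stronger hERG block; nearly all actives have a fitted effect of over 50% in size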). The settings on record: U2OS BacMam hERG, FluxOR thallium flux fluorescence; at 46.1 µM (top of the series). Put shortly:
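hERG-BacMam U2OS, 2000 cells/well; 0.7X FluxOR loading 1 hr RT dark; cpd ~10 min 37 °C; stim buffer; FDSS fluorescence 2 min @ 1 s; AC50 Hill fit.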

Assay [4] deals with Cytochrome P450 3A4 (Homo sapiens) (UniProt P08684). The assay can be described thus: Cytochrome P450 family 3 subfamily A member 4 (CYP3A4) small molecule antagonists: luciferase qHTS assay (AID 1645841). Further: nearly all actives have a fitted effect of over 45% in size. The conditions noted are these: P450-Glo CYP3A4 enzyme assay, luciferin luminescence; at 57.4 µM (top of the series). Put shortly:
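P450-Glo CYP3A4 enzyme with proluciferin substrate preincubated 10 min with compound at room temperature, then NADPH regeneration 1 h. Luciferin detection reagent added for 20 min; luminescence recorded. Ketoconazole positive control.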

Assay [5] concerns the target Cytochrome P450 1A2 (Homo sapiens) (UniProt P05177). As to the kind of experiment: p450-cyp1a2 (AID 410; calls by dose curve;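 further: -100% = full effect of reference inhibitor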). The settings on record: recombinant CYP1A2, luciferin-ME demethylation, luminescence; at 57 µM (top of the series) unless noted. In outline:
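20nM CYP1A2 with 100uM Luciferin-ME (at Km) in 100mM KPO4; compound preincubated 10 min, NADPH regeneration added, 60 min at room temperature. Luciferin quantified by luminescence after detection reagent; normalized to 57 uM furafylline.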

Assay [6] addresses Cytochrome P450 2D6 (Homo sapiens) (UniProt P10635). The assay can be described thus: qHTS Assay for Inhibitors and Substrates of Cytochrome P450 2D6 (AID 891; active means well fitted curve in the direction sought with a large enough effect; an effect the other way counts as inactive or inconclusive;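 further: luciferin methyl ether substrate demethylated by CYP2D6 with NADPH regeneration; on the % scale 0 is the no-effect control and ±100 the full control effect; nearly all actives have a fitted effect of over 60% in size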). The settings on record: recombinant CYP2D6, luciferin-ME EGE luminescence; at 57.1 µM (top of the series). Put shortly: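 Human CYP2D6 (5 nM) with 30 uM Luciferin-ME EGE (at Km) in 100 mM KPO4, compound preincubated 10 min, then NADPH regeneration system for 60 min at room temperature. Luciferin read by luminescence; normalized to 1.43 uM quinidine.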

Assay [7] deals with Cytochrome P450 2C19 (Homo sapiens) (UniProt P33261). As to the kind of experiment: qHTS Assay for Inhibitors and Substrates of Cytochrome P450 2C19 (AID 899; active means well fitted curve in the direction sought with a large enough effect; an effect the other way counts as inactive or inconclusive; further: on the % scale 0 is the no-effect control and ±100 the full control effect; nearly all actives have a fitted effect of over 60% in size). The conditions noted are these: recombinant CYP2C19, luciferin-H EGE luminescence; at 57.1 µM (top of the series). Put shortly: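 Signal comes from luciferase acting on luciferin released by CYP2C19-mediated hydroxylation of Luciferin-H EGE, 10uM (KM). Assay mix: 5nM enzyme, 50mM KPO4; 60 min at 37C with NADPH regeneration. Data normalized against 57uM ketoconazole.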

The structures appear in SMILES notation. “And” between values parts separate entries of the source, which are not always exact repeats. Identical values can stand only once. For some of these results: Shown are results outside the selection of hits, which stands elsewhere. Results filed as inconclusive are left out. The list shows a part of the results, in another mix than the full data. The source made the active and inactive calls. Unless noted, the call rests on the fitted dose curve; in most records, active means well fitted curve in the direction sought with a large enough effect in the repeat runs; inconclusive means weak or mixed curves; inactive means no such curve, though single readings can be large; an effect the other way counts as inactive or inconclusive.

For the compound `CCNC(=O)CC1N=C(c2ccc(Cl)cc2)c2cc(OC)ccc2-n2c(C)nnc21` (stereo not drawn), the activity change, negative = inhibition in assay [1] was inactive: 3.54% and inactive: 8.59%. Besides, the Potency in assay [2] was active: 9.52 µM and inactive.

As to `CC(=O)[C@H]1CC[C@H]2[C@@H]3CC[C@H]4C[C@H](O)CC[C@]4(C)[C@H]3C(=O)C[C@]12C`, the activity change, negative = inhibition in assay [3] is inactive: 14.9%; in assay [1], inactive: -2%; in assay [4] it was inactive: -6.04%. The Potency in assay [2] is active: 8.71 µM.

As for `CN1c2ccccc2C(NCCCCCCC(=O)O)c2ccc(Cl)cc2S1(=O)=O` (stereo not drawn), in assay [3], the activity change, negative = inhibition was inactive: 1.51%.

Regarding `CC(=O)[C@@H]1CC[C@H]2[C@H]3CC[C@H]4C[C@@H](O)CC[C@]4(C)[C@@H]3C(=O)C[C@@]12C`, the activity change, negative = inhibition in assay [5] was inactive: -16.7% [at 25.6 µM].

On to `CC(=O)[C@@H]1CC[C@@H]2[C@H]3CC[C@H]4C[C@@H](O)CC[C@]4(C)[C@@H]3C(=O)C[C@]21C`, for which the activity change, negative = inhibition in assay [5] is inactive: -1.7%; in assay [6], inactive: -3.6%. Further, the activity, negative = inhibition in assay [7] is inactive: -7.56%.

For `C[C@@H]1CN(Cc2ccc(F)cc2)CCN1C(=O)COc1ccc(Cl)cc1NC(N)=O`, the activity change, negative = inhibition in assay [4] is inactive: 42.7%. Moreover, in assay [2], the Potency is active: 4.77 µM.
